From PubChem BioAssay AID1688 (National Center for Advancing Translational Sciences (NCATS), 2009)
In all, about 220,000 compounds went through this assay and about 2,400 (1.1%) were called active. The inconclusive results got no clear call from the source; some entries with a clear call stand among them for comparison. Calls follow the shape of the dose curve; as a rule, active = well fitted inhibition curve with a large enough effect; inconclusive = small, poorly fitted or top-dose-only effect, or effect the other way; inactive = no such curve, though single readings can be large or run the other way. Where the call is inconclusive, the potency comes from a doubtful curve fit.

Assay: qHTS Multiplex Assay to Identify Dual Action Probes in a Cell Model of Huntington: Aggregate Formation (GFP); also: nearly all actives have a fitted effect of over 60% in size
Settings: PC12 HttQ103-GFP aggregates, Acumen cytometry, 40 h; activity change, negative = inhibition: at 46.1 µM (top of the series) unless noted
Outline: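 Quantitative HTS on tebufenozide-induced (100 nM) PC12 cells stably expressing polyQ103 Huntingtin exon 1–GFP. Reduction of bright GFP aggregates, detected by laser scanning cytometry after lysis, identified actives across the titration.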
% is scaled to controls: 0 for no effect and ±100 for the full control effect; potency is read from the fitted curve at half-maximal effect.

SMILES	Potency	activity change, negative = inhibition
CNC(=S)N(CCc1c(C)[nH]c2ccc(C)cc12)Cc1cccs1	inconclusive: 35.5 µM [inhibitor, partial curve]	
CC(C)(C)c1cnnn1-c1ccc(/C=N/Nc2ccc([N+](=O)[O-])cc2)cc1	inconclusive: 28.2 µM [inhibitor, single point]	
COc1ccc(NC(=O)COc2ccc(C)cc2)c([N+](=O)[O-])c1		inactive: -3.28%
Cc1ccc(O)c(C2=Nc3ccccc3N=C(c3cccs3)C2)c1		inactive: -19.5%
COc1cccc(/C=N/n2c(C)nc3ccccc32)c1OC	active: 12.6 µM	
CCOC(=O)c1sc(-c2ccccc2)cc1NC(=O)Nc1ccccc1	inconclusive: 35.5 µM [inhibitor, single point]	
CC1Oc2ccccc2C=C1/C=C1/SC(N2CCOCC2)=NC1=O (stereo not given)		inactive: 10.9%
CCc1nnc(NC(=O)c2ccc(S(=O)(=O)N(C)c3ccccc3)cc2)o1	inconclusive: 3.55 µM [inhibitor, partial curve]	
O=S(=O)(c1ccc2nc(-c3ccco3)c(-c3ccco3)nc2c1)N1CCOCC1	inconclusive: 35.5 µM [inhibitor, single point]	
COc1ccccc1-c1ccc(Nc2cccc(C(F)(F)F)c2)nn1		inactive: 12.6%
CC(C)CC(=O)N1CCN(Cc2ccc3c(c2)OCO3)CC1	inconclusive: 11.2 µM [inhibitor, partial curve]	
CC1=C(C(=O)OCCOc2ccccc2)C(c2ccsc2)NC(=O)N1C (stereo not given)	inconclusive: 12.6 µM [inhibitor, partial curve]	
C=CC(C)(C)c1cc2cc3ccoc3cc2oc1=O	inconclusive: 35.5 µM [inhibitor, single point]	
CCN(CC)CCNC(=O)c1c(C)n(-c2ccccc2)c2cc(Br)c(OC)cc12	inconclusive: 25.1 µM [inhibitor, single point]	
CCc1ccc2c(c1)C1(NN=C(c3cccc4ccccc34)S1)C(=O)N2 (stereo not given)	inconclusive: 8.91 µM [inhibitor, partial curve]	
O=c1[nH]c(-c2ccccn2)nc2ccccc12	inconclusive: 3.55 µM [inhibitor, full curve, poor fit]	
Cc1nc2ccc(NS(=O)(=O)c3ccc4c(c3)OCCO4)cc2s1	inconclusive: 7.08 µM [inhibitor, partial curve]	
CCn1c(CSc2ncccn2)nnc1SCC(=O)N1CCc2ccccc21		inactive: -8.62%
CC(=O)c1cn(CC(=O)Nc2ccc(C)cc2C)c2ccccc12	inconclusive: 7.08 µM [inhibitor, partial curve]	
Cc1ccc(S(=O)(=O)Nc2nc3ccccc3nc2NCc2ccco2)cc1C	inconclusive: 10 µM [inhibitor, single point]	

An excerpt of these results, with bars between the fields:
SMILES | Potency | activity change, negative = inhibition
COc1ccc(NC(=O)COc2ccc(C)cc2)c([N+](=O)[O-])c1 |  | inactive: -3.28%
CC(=O)c1cn(CC(=O)Nc2ccc(C)cc2C)c2ccccc12 | inconclusive: 7.08 µM [inhibitor, partial curve] | 
